# Results from PMC10164577.
# For at least one entry, the source does not settle the construct or the ends of the probe.
# System: CAF-1 (Cac1-Cac2-Cac3)
# Assay: EMSA
# Details: 10-fold weaker binding than longer DNA, Hill coefficient fixed at 1; EMSA: 25 mM Tris pH 7.5, 150 mM NaCl, 1 mM EDTA, 0.02% Tween-20, 1 mM TCEP, 50 nM DNA, 6% PAGE; recombinant protein; label: 5' Alexa Fluor 647 on forward …
sequence,measurement,value
GTCTACGAGCAATTGAGC (double strand) [18 bp DNA],Kd,> 2000 nM
